Molecules are shown by their SMILES.

The record followed here is paper PMC9814901, “One-pot synthesis of cyclic-aminotropiminium carboxylate derivatives with DNA binding and anticancer properties” (Communications Chemistry, 2022).

The data set concerns HeLa cells. Kind of data set: MTS cell viability assay in HeLa. The format is cell-based. On the procedure: We investigated the effect of nine cATC derivatives (6b/6d/6e/6f/6i/6j/6k/6l/6n) on cell viability in cancer cell-line HeLa and transformed normal cell-line HEK293. We treated cells with the varying concentrations of the compounds ranging from 10 nM to 50 μM for 18 h (optimized).
MTS assay (CellTiter 96® AQueous One Solution Cell Proliferation Assay (Promega, USA) was used to determine the cell viability. HeLa and HEK293 cells (20,000 cells in each well) were plated in 96 well plate and treated with 6e, 6j, and 6n varying concentrations of the compounds ranging from 10 nM to 50 μM for 18 h. The assay was carried out according to the manufacturer’s instructions. Finally, the plate was read in Varioskan™ LUX multimode microplate reader (Thermo Fisher Scientific) at 490 nm.
Cell scavenging activity was calculated using the following formula:
OD(490nm) (control) – OD(490nm) (Test)/OD(490nm) (control) × 100%
Cell Viability of the cell was calculated using the following formula: […]
Background: Tetrazolium assays rely on reduction of a dye to a coloured formazan, in cell work by metabolically active cells.

With `Cc1cccc(C2C(C(=O)[O-])N(CCc3ccccc3)c3ccccc[c+]3N2Cc2ccccc2)c1` (stereo not shown) [Compound 6e], the “concentration at which fluorescence signal became visible inside cells” value came to 12 µM.
